According to the supplement of paper PMC12578635:
± gives the standard deviation of the averaged measurements. This is one part of the list. Many values rest on one well or one pass, so single values are uncertain.

Test system: RAW 264.7 macrophages infected with S. aureus JE2-lux
Assay: host macrophage viability (CellTiter-Fluor) relative to DMSO vehicle; higher = more viable host cells
Settings: 10 µM; treatment time 4 h; gentamicin 50 µg/ml

SMILES | host macrophage viability [%]
O=C(NCC1COC2(CCCCC2)O1)C(=O)Nc1ccccc1[N+](=O)[O-] (stereo unspecified) | 106
Clc1ccc2nc(N3CCc4ccccc4C3)sc2c1 | 105 ± 14
O=C(CSc1nc2ccc(Br)cc2c2nc3ccccc3n12)Nc1nccs1 | 123
COc1cc(OC)c(OC)cc1/C=N\NC(=O)CCC1C(=O)NN=C1C (stereo unspecified) | 102
Cc1ccc(NC(=O)CSc2nc3cc4c(cc3cc2C#N)OCO4)c(C)c1 | 139
Cc1[nH]c2ccccc2c1C(=O)CSc1ncnc2sc3c(c12)CCC3 | 119
CCOC(=O)c1ccccc1NC(=O)CSc1ncnc2c1cnn2-c1ccc(F)cc1 | 121
O=C(Cn1cccc1-c1nc(-c2ccc(Cl)cc2)cs1)N1CCc2ccccc21 | 88.7
C=CCc1cccc2cc(C(=O)NNC(=O)c3ccc(C)cc3)c(=O)oc12 | 106
O=C(Nc1ccc(F)cc1)/C(O)=C1\C(=O)Nc2ccc([N+](=O)[O-])cc21 | 120
COc1ccc(-c2nnc(-c3ccccc3)o2)cc1S(=O)(=O)N1CCc2ccccc2C1 | 123
Cc1cccc(Cl)c1NC(=O)CCc1nc(CSc2nc3ccccc3o2)no1 | 128
Cc1cc2c(=O)n(CC(=O)Nc3ccc(F)c(Cl)c3)cnc2s1 | 106
Cc1cccc(NC(=O)Cn2c(=O)c3cnc(-c4ccccc4)nc3n(C)c2=O)n1 | 117
O=C(CSc1nc2c(oc3ccccc32)c(=O)n1Cc1cccs1)NCc1ccc(F)cc1 | 122
CC(=O)Nc1c(-c2ccc(Cl)cc2)c(C)nn1-c1ccc(C(=O)Nc2nccs2)cc1 | 114
Cn1c(=O)c2c(nc(SCC(=O)Nc3sc4c(c3C#N)CCCC4)n2C)n(C)c1=O | 105
Cc1cc(F)ccc1NC(=O)Cn1cccc1-c1nc(-c2ccccc2)cs1 | 81.9
O=C(O)CC1SC(=O)N(c2ccccc2)C1=O (stereo unspecified) | 112
O=C(Cn1c(=O)c2ccccc2n2nncc12)NCc1ccccc1Cl | 113
Cc1ccc2c(c1)C1CC(C)(O2)N(c2ccc(C(=O)O)cc2)C(=O)N1 (stereo unspecified) | 108
COc1ccc(-c2ccnc3[nH]n(-c4nc(C)cc(C)n4)c(=O)c23)cc1 | 115
CCOC(=O)c1cc(C)nc2c1c(=O)n(Cc1ccccc1Cl)c(=O)n2C | 102
CC(C)NC(=O)C1CCN(C(=O)c2cc(-c3ccccn3)[nH]n2)CC1 | 119
O=c1oc2ccccc2cc1-c1csc(Nc2nc3cc4c(cc3s2)OCO4)n1 | 112 ± 9.5
O=C(CSc1nnc(NC(=O)C2CCCCC2)s1)Nc1nccs1 | 126

SMILES | host macrophage viability [%]
CC(=O)C1C(c2cccc(C)c2)NC(=O)NC1(O)C(F)(F)F (stereo unspecified) | 112
N#CC1=C(SCC(=O)Nc2ccc(Br)cc2)NC(=O)CC1c1ccc2c(c1)OCO2 (stereo unspecified) | 124
O=C(CN(C(=O)c1csnn1)c1cnc2ccccc2c1)NCc1ccc(F)cc1 | 120
CCSc1cccc(C(=O)Nc2sc3c(c2C#N)CCN(C(C)=O)C3)c1 | 119
O=C(CCc1ccccc1)NCCn1nc(-c2cccs2)oc1=O | 137
O=C(COc1ncnc2ccccc12)Nc1c[nH]c2ccccc12 | 119
Cc1ccc2nc(NC(=O)CSc3nnc4[nH]c(=O)c(C)c(C)n34)sc2c1 | 102
CCOc1ccc(C(=O)NCCSc2ncc(-c3ccccc3)[nH]2)cc1 | 119
COc1cccc(C(=O)Nc2c3c(nn2-c2ccccc2C)CS(=O)C3)c1 (stereo unspecified) | 125
CC(Nc1nc2c(S(=O)(=O)c3ccc(Cl)cc3)nnn2c2ccccc12)c1ccccc1 (stereo unspecified) | 103
Cc1cc(Nc2ccc3c(c2)OCO3)n2c(n1)nc1ccccc12 | 114
COc1ccc(S(=O)(=O)Nc2cccc(-c3nc4cccnc4s3)c2)cc1F | 131 ± 1.8
CN1CCN(C(CNC(=O)c2ccc(Cl)cc2)c2ccc3c(c2)OCO3)CC1 (stereo unspecified) | 114
Cn1cnc(S(=O)(=O)NCc2nnc(C(=O)Nc3ccc(F)cc3F)s2)c1 | 96.4
COc1ccc(-n2c(-c3ccccc3)cn3c4c(=O)[nH]c(=O)n(C)c4nc23)cc1Cl | 120
O=C(CSc1nc(=O)n2ccccc2n1)Nc1cccc(Cl)c1 | 108
Cc1cc(C)c2s/c(=N\C(=O)CN3C(=O)c4ccccc4C3=O)n(C)c2c1 | 108
CCOC(=O)Cn1c(Cl)c(/C=N/NC(=O)c2ccc3ccccc3n2)sc1=O | 126
COc1ccc(S(=O)(=O)Nc2cccc(C(=O)Nc3nc4cc5c(cc4s3)OCO5)c2)cc1 | 134
CCOC(=O)c1nc(Cl)c2c(C)c(C)n(-c3cccc(Cl)c3)c2n1 | 121
Cn1c(=O)[nH]c(=O)c2c1nc1n2CC(COc2ccc3ccccc3c2)O1 (stereo unspecified) | 133
Cc1nc(SCC(=O)Nc2sc3c(c2C#N)CCCC3)c2c3c(sc2n1)CCC3 | 113
COc1cccc(-c2cc(=O)n3c4ccccc4n(CC(=O)NC4CCCC4)c3n2)c1 | 136
O=C(Nc1ccccc1-c1ccccc1)N1CCC(c2nc3ccccc3o2)CC1 | 111
COCCNc1nc(-c2nnc(-c3cccc(C)c3)o2)nc2ccccc12 | 117
c1ccc(CN2CCN(c3ncnc4[nH]cnc34)CC2)cc1 | 124

SMILES | host macrophage viability [%]
Cn1c(CCC(=O)NC(c2ccccc2)c2cccnc2)nc2ccccc21 (stereo unspecified) | 107
COc1ccccc1N1CCN(c2nc(C)c(CCC(C)C)c(=O)[nH]2)CC1 | 129
Cc1cccc(-c2nc3c(c(SCC(=O)N4CCOCC4)n2)Cc2c(CO)cnc(C)c2O3)c1 | 100
Cc1ccc(Nc2cc(N3CCN(C(=O)c4cccs4)CC3)nc(C)n2)cc1 | 95.9
O=C(Cn1cnc2c(cnn2CCO)c1=O)N1CCC(Cc2ccccc2)CC1 | 126
COc1ccc(Cl)cc1C(=O)Nn1cnc2c(cnn2-c2ccccc2)c1=O | 124
Cc1cccn2c(=O)c3cc(S(=O)(=O)c4ccc(Cl)cc4)c(=N)n(Cc4ccncc4)c3nc12 | 130
Cc1ccc(C)c2sc(N(Cc3ccccn3)C(=O)c3cccc(S(C)(=O)=O)c3)nc12 | 103
COc1ccc(OC)c2[nH]c(=O)c(CCN3C(=O)c4ccccc4C3=O)cc12 | 102
Cc1cccc(-c2noc(C)c2C(=O)NCCn2ccnc2C)c1 | 116
O=C(NCc1ccccn1)C(=O)NCC(c1ccco1)N1CCc2ccccc21 (stereo unspecified) | 120
O=S(=O)(c1ccc(Cl)cc1)c1nnn2c1nc(NCc1ccc3c(c1)OCO3)c1sccc12 | 113
COc1ccc(-c2noc(N3CCC(C(=O)N4CCN(c5cc(Cl)ccc5C)CC4)CC3)n2)cc1 | 123
Cc1ccc2cc(C#N)c(N3CCN(C(=O)c4ccc(F)cc4)CC3)nc2c1 | 109
COc1ccccc1CNC(=O)c1sc2nc(C)nc(N3CCCC3)c2c1C | 95.2
Cc1cc(C)c2cc(CN(Cc3ccc4c(c3)OCO4)C(=O)c3ccco3)c(Cl)nc2c1 | 110
CCN(Cc1ccccc1)c1ncnc2c1cnn2-c1cccc(Cl)c1 | 111
Cc1ccc2cc(C)c3nn(CCNC(=O)Cc4c(C)nc(C)nc4O)c(=O)n3c2c1 | 118
CCc1ccc2c(c1)C(O)(C1SC(N)=NC1=O)C(=O)N2 (stereo unspecified) | 103
COc1cccc(NC(=O)CCc2c(C)[nH]c3nc(NCc4ccccc4)nn3c2=O)c1 | 123
Cn1nc(C(C)(C)C)cc1C(=O)Nc1ccccc1NC(=O)c1ccccn1 | 91.4
NC(=O)CCSc1nnc(SCC(=O)c2ccccc2)s1 | 110 ± 12
Cc1nc(Nc2ccc(NC(=O)c3ccc4c(c3)OCO4)cc2)cc(N(C)C)n1 | 108
O=C(NC1CCN(C(=O)Nc2cccc(Cl)c2)CC1)c1ccccc1 | 106
Cc1ccc(Cc2cnc(NC(=O)c3cc4ccccc4c(=O)o3)s2)cc1 | 135
N#Cc1ccc(C(=O)N(CCN2CCOCC2)c2nc3ccccc3s2)cc1 | 111

SMILES | host macrophage viability [%]
O=C(CSc1nc(O)c2nc[nH]c2n1)OCc1ccccc1 | 113
Cc1ccc(N(Cc2ccc3c(c2)CN(S(=O)(=O)c2cccc(C)c2)CCO3)C(=O)C(C)C)cc1 | 87.2
Cc1ccc(COc2ccc([N+](=O)[O-])cc2/C=C2\SC(=O)NC2=S)cc1 | 103
COc1ccc2[nH]c3nc(SCC(=O)Nc4ccc(C(=O)NC5CC5)cc4)nnc3c2c1 | 109
Cc1ccccc1C(=O)NC1CC2CCCC(C1)N2C(=S)Nc1ccccc1 (stereo unspecified) | 110
O=C(NCCc1csc(-c2ccc(C(F)(F)F)cc2)n1)c1ccc2c(c1)OCO2 | 127
Cc1ccc(C(=O)Nc2cc3c4c(c2)CCN4C(=O)CC3)cc1C | 108
CC(=O)c1cccc(NC(=O)CSc2nnc(Cn3nnc4ccccc43)n2C)c1 | 108
CCCn1c(=O)c(=O)[nH]c2cc(-c3noc(COc4ccccc4)n3)ccc21 | 111
O=C1C(=O)N(CCOc2ccc(Cl)cc2)c2ccccc21 | 110
CC1CCN(S(=O)(=O)c2ccc(NC(=S)NC(=O)C3CC3)cc2)CC1 | 107
O=C(NCc1ccccc1)N1CCCC1c1nc(-c2cnccn2)n[nH]1 (stereo unspecified) | 105
CCOc1ccc2nc(NC(=O)CSc3nnc4c(n3)[nH]c3ccccc34)sc2c1 | 104
Cc1ccc(Nc2c(C(=O)NC(C)CCc3ccccc3)cnc3c2c(C)nn3C)cc1 (stereo unspecified) | 69.4
Cc1ccc(C)c(S(=O)(=O)NCCn2c(C(F)(F)F)nc3cccnc32)c1 | 117
CSc1nc2ccc3nc(NC(=O)c4cc5ccccc5oc4=O)sc3c2s1 | 106 ± 3.9
Cc1cc(CNC(=O)Cn2cnc3sc(C)cc3c2=O)c2[nH]c(C)c(C)c2c1 | 112
O=C(Cn1nc(-c2ccccc2)c2cnc3ccc(F)cc3c21)NC1CCCC1 | 123
C=CCN1C(=O)SC(CC(=O)Nc2ccc(C)cc2)C1=O (stereo unspecified) | 112
NC(=O)C1CCN(C(=O)CCCCCn2c(=O)[nH]c3ccsc3c2=O)CC1 | 126
COc1ccc(C2=NN(S(C)(=O)=O)C(c3cn(-c4ccccc4)nc3-c3ccc(C)cc3)C2)cc1 (stereo unspecified) | 91.2
NC(=O)COc1ccc2c(-c3cc4cc(Cl)ccc4oc3=O)cc(=O)oc2c1 | 109
N=C1N=C(O)NC(=O)/C1=N/Nc1cccc(Br)c1 | 111 ± 13

Shown tab-delimited: entries from further up
SMILES	host macrophage viability [%]
Cn1nc(C(C)(C)C)cc1C(=O)Nc1ccccc1NC(=O)c1ccccn1	91.4
NC(=O)CCSc1nnc(SCC(=O)c2ccccc2)s1	110 ± 12
Cc1nc(Nc2ccc(NC(=O)c3ccc4c(c3)OCO4)cc2)cc(N(C)C)n1	108
O=C(NC1CCN(C(=O)Nc2cccc(Cl)c2)CC1)c1ccccc1	106
Cc1ccc(Cc2cnc(NC(=O)c3cc4ccccc4c(=O)o3)s2)cc1	135
